In test [1] the target is T1, Elp1-6HA (wild-type, from YCplac111-ELP1-6HA) (S. cerevisiae) (UniProt Q06706).
T1 sequence: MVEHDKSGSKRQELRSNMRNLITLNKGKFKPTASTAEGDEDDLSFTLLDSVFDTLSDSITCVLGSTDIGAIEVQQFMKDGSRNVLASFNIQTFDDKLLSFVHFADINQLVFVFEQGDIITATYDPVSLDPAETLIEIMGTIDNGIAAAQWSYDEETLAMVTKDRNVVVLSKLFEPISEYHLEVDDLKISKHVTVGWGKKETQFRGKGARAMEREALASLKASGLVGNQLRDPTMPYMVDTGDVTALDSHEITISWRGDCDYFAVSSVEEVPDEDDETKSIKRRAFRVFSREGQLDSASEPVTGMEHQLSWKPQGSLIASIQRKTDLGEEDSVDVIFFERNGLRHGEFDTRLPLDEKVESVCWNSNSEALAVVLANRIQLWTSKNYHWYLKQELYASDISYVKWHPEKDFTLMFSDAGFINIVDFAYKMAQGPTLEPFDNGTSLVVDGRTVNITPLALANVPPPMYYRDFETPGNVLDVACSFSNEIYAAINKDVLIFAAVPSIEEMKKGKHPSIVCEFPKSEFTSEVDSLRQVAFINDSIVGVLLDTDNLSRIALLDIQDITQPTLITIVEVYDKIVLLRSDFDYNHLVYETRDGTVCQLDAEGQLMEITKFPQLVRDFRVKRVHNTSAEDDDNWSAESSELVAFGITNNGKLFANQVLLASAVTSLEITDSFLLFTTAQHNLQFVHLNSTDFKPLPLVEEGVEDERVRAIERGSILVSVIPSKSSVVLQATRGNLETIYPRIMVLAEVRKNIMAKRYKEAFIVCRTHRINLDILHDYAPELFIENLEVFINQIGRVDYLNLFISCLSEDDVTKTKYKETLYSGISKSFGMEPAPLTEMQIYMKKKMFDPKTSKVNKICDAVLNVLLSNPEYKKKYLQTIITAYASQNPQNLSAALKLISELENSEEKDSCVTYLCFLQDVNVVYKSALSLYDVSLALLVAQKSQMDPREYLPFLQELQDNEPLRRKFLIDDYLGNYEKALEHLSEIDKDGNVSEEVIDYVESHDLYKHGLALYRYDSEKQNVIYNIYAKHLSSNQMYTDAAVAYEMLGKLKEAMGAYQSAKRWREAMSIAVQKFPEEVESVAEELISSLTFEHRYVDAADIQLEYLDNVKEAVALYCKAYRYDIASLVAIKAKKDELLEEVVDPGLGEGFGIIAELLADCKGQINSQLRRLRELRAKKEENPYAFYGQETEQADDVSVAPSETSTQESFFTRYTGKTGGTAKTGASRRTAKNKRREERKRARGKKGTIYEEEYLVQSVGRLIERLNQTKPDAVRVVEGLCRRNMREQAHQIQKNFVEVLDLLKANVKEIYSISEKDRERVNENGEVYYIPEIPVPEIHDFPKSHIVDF
Kind of test: co-IP; Elp2-myc immunoprecipitated from extracts of elp1Δ yeast strains carrying plasmid-borne ELP1-6HA alleles (antibody coupled to Dynabeads, B60 buffer); Western blot with anti-myc, anti-HA and anti-Hrr25. A general note: Immunoblotting shows a protein as a band on a membrane.

Test [2] concerns the target T2, Elp1-S1209A-6HA (S. cerevisiae) (UniProt Q06706).
T2 sequence: T1 sequence with S1209A
The description is as above.

Positions count from the first letter of the chain named. Results are given in words; binding and its absence hold for the method and conditions named. In cells and extracts the contact can be indirect. Some results given as binding are weak or reduced against the parent protein; the word gives no strength.

B1: Hrr25 protein kinase (casein kinase I), endogenous (enzyme, UniProt P29295 1-494)
chain: MDLRVGRKFRIGRKIGSGSFGDIYHGTNLISGEEVAIKLESIRSRHPQLDYESRVYRYLSGGVGIPFIRWFGREGEYNAMVIDLLGPSLEDLFNYCHRRFSFKTVIMLALQMFCRIQYIHGRSFIHRDIKPDNFLMGVGRRGSTVHVIDFGLSKKYRDFNTHRHIPYRENKSLTGTARYASVNTHLGIEQSRRDDLESLGYVLIYFCKGSLPWQGLKATTKKQKYDRIMEKKLNVSVETLCSGLPLEFQEYMAYCKNLKFDEKPDYLFLARLFKDLSIKLEYHNDHLFDWTMLRYTKAMVEKQRDLLIEKGDLNANSNAASASNSTDNKSETFNKIKLLAMKKFPTHFHYYKNEDKHNPSPEEIKQQTILNNNAASSLPEELLNALDKGMENLRQQQPQQQVQSSQPQPQPQQLQQQPNGQRPNYYPEPLLQQQQRDSQEQQQQVPMATTRATQYPPQINSNNFNTNQASVPPQMRSNPQQPPQDKPAGQSIWL
Consider B1, for which the binding result in test [1] and in test [2] was “binds” throughout.

B2: Kti12-HA6 (natural protein, S. cerevisiae, UniProt P34253 1-313, looked up)
chain: MPLVLFTGYPCSGKTTLAKHLVQLLQSKIDATPSLSKYSITYHSDESLGIKHSDYITSQDERKLRSEIISAVKRDLSKNKIVIVDSLNYIKGFRYQLHCEVKNLSTTFCVIQTLCPPETIFEWNKTSNPNPWEPELLNQLIQRYEEPNSSNRWDSPLFAILTPQDNITDYIDDICKVVFQTSKSAKNSGHNDPLSKGLQKPNSATVLKPASQSNFIQVLDIETSKIIKTIMNHIKSLTSIGGVSNGTRVIVSEGITDINDDGCFFVDLPIGNVVTLAQLQRLKRQFINFNKLRDIDQDRIGPLFADYLNKNLN
notes: Kti12, accessory protein of Elongator, S. cerevisiae; also called HA-tagged Kti12; source: S. cerevisiae KTI12-HA6 strains, in cell extract
With B2, the binding entry in test [1] and in test [2] was “binds” in each case.

The values above are taken from paper PMC4287497, “Phosphorylation of Elp1 by Hrr25 Is Required for Elongator-Dependent tRNA Modification in Yeast” (PLoS Genetics, 2015).
